Drug screen on melanoma cell lines: cell count

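The test systems are human melanoma cell lines, treated with a pair of drugs for 72 h and then stained and imaged. Values are the number of DAPI-stained nuclei as a percentage of the DMSO control: 100 is no effect, lower means fewer cells. Concentrations were fixed for each drug; these are the higher of two levels. The file gives one value for each pair and line, without errors, so small differences may be noise.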 Only some of the drugs and lines screened are listed, without regard to their results.

Compounds and concentrations:
tamatinib: COc1cc(Nc2ncc(F)c(Nc3ccc4c(n3)NC(=O)C(C)(C)O4)n2)cc(OC)c1OC at 2000 nM
YM155: COCC[n+]1c2c(n(Cc3cnccn3)c1C)C(=O)c1ccccc1C2=O at 2 nM
temozolomide: Cn1nnc2c(C(N)=O)ncn2c1=O at 10000 nM
PLX4720: CCCS(=O)(=O)Nc1ccc(F)c(C(=O)c2c[nH]c3ncc(Cl)cc23)c1F at 400 nM
everolimus: CO[C@H]1C[C@@H]2CC[C@@H](C)[C@@](O)(O2)C(=O)C(=O)N2CCCC[C@H]2C(=O)O[C@H]([C@H](C)C[C@@H]2CC[C@@H](OCCO)[C@H](OC)C2)CC(=O)[C@H](C)/C=C(\C)[C@@H](O)[C@@H](OC)C(=O)[C@H](C)C[C@H](C)/C=C/C=C/C=C/1C at 100 nM
fingolimod: CCCCCCCCc1ccc(CCC(N)(CO)CO)cc1 at 10000 nM
GSK0660: COC(=O)c1sccc1S(=O)(=O)Nc1ccc(Nc2ccccc2)cc1OC at 5000 nM
OSU-03012: NCC(=O)Nc1ccc(-n2nc(C(F)(F)F)cc2-c2ccc3c(ccc4ccccc43)c2)cc1 at 5000 nM
vatalanib: Clc1ccc(Nc2nnc(Cc3ccncc3)c3ccccc23)cc1 at 10000 nM
PD173074: CCN(CC)CCCCNc1ncc2cc(-c3cc(OC)cc(OC)c3)c(NC(=O)NC(C)(C)C)nc2n1 at 500 nM
AS-252424: O=C1NC(=O)/C(=C/c2ccc(-c3ccc(F)cc3O)o2)S1 at 5000 nM
sunitinib: CCN(CC)CCNC(=O)c1c(C)[nH]c(/C=C2\C(=O)Nc3ccc(F)cc32)c1C at 2000 nM
decitabine: Nc1ncn([C@H]2C[C@H](O)[C@@H](CO)O2)c(=O)n1 at 500 nM
bexarotene: C=C(c1ccc(C(=O)O)cc1)c1cc2c(cc1C)C(C)(C)CCC2(C)C at 10000 nM
perifosine: CCCCCCCCCCCCCCCCCCOP(=O)([O-])OC1CC[N+](C)(C)CC1 at 2000 nM
AZD7762: NC(=O)Nc1cc(-c2cccc(F)c2)sc1C(=O)N[C@H]1CCCNC1 at 100 nM
MK-2206: NC1(c2ccc(-c3nc4ccn5c(=O)[nH]nc5c4cc3-c3ccccc3)cc2)CCC1 at 2000 nM
pioglitazone: CCc1ccc(CCOc2ccc(CC3SC(=O)NC3=O)cc2)nc1 (stereo not given) at 10000 nM
XAV939: Oc1nc(-c2ccc(C(F)(F)F)cc2)nc2c1CSCC2 at 10000 nM
vincristine: CC[C@]1(O)C[C@H]2CN(CCc3c([nH]c4ccccc34)[C@@](C(=O)OC)(c3cc4c(cc3OC)N(C=O)[C@H]3[C@@](O)(C(=O)OC)[C@H](OC(C)=O)[C@]5(CC)C=CCN6CC[C@]43[C@@H]65)C2)C1 at 0.5 nM

| # | Pair | WM451Lu | WM3619 |
|---|---|---|---|
| 1 | fingolimod + sunitinib | 3.8 | 0.5 |
| 2 | YM155 + vincristine | 22.8 | 60.9 |
| 3 | vincristine + MK-2206 | 34.6 | 56.9 |
| 4 | PLX4720 + vatalanib | 43.7 | 64.7 |
| 5 | GSK0660 + fingolimod | 19.2 | 4.8 |
| 6 | fingolimod + PLX4720 | 8.9 | 4.0 |
| 7 | fingolimod + MK-2206 | 8.7 | 1.9 |
| 8 | temozolomide + bexarotene | 102 | 71.1 |
| 9 | pioglitazone + AS-252424 | 81.7 | 63.1 |
| 10 | PD173074 + temozolomide | 88.7 | 90.4 |
| 11 | XAV939 + pioglitazone | 85.7 | 65.4 |
| 12 | PLX4720 + OSU-03012 | 45.7 | 75.8 |
| 13 | temozolomide + GSK0660 | 114 | 115 |
| 14 | perifosine + OSU-03012 | 86.7 | 76.3 |
| 15 | tamatinib + PLX4720 | 63.9 | 67.3 |
| 16 | everolimus + vatalanib | 53.2 | 51.3 |
| 17 | XAV939 + perifosine | 83.1 | 95.9 |
| 18 | PLX4720 + perifosine | 80.3 | 180 |
| 19 | AZD7762 + PLX4720 | 69.3 | 17.5 |
| 20 | vatalanib + temozolomide | 70.7 | 65.5 |
| 21 | decitabine + perifosine | 76.0 | 82.4 |
| 22 | pioglitazone + vincristine | 30.7 | 28.9 |
| 23 | vincristine + XAV939 | 33.8 | 59.2 |
| 24 | GSK0660 + decitabine | 80.1 | 93.2 |
| 25 | temozolomide + AS-252424 | 89.5 | 81.6 |
| 26 | AZD7762 + bexarotene | 65.0 | 24.5 |
| 27 | pioglitazone + GSK0660 | 100 | 94.9 |
| 28 | sunitinib + PLX4720 | 42.2 | 81.2 |
| 29 | AZD7762 + YM155 | 46.9 | 27.2 |
| 30 | tamatinib + everolimus | 73.6 | 84.4 |
| 31 | perifosine + PD173074 | 85.1 | 104 |
| 32 | tamatinib + AZD7762 | 87.0 | 26.1 |

For reference, 2 entries once more:

- temozolomide + AS-252424 : WM451Lu: 89.5; WM3619: 81.6
- GSK0660 + fingolimod : WM451Lu: 19.2; WM3619: 4.8

Values as published with doi:10.1371/journal.pone.0140310, rounded.